In patent US20190381086A1, “INHIBITION OF NEDDYLATION USING GLYCYL-tRNA SYNTHETASE INHIBITORS” (The Scripps Research Institute, priority 2015, published 2019):
Results are given in words; binding and its absence hold for the method and conditions named. Binding seen in cells or lysates may run through a third protein. Some entries that bind do so weakly or less than the wild type.

Chains of the proteins cited; added tags and fusions are not shown. Residues count along the entry.
UniProt Q15843, residues 1-76: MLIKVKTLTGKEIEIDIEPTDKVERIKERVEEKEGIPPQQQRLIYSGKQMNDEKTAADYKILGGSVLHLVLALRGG

Target: T1, Ubc12
T1 sequence: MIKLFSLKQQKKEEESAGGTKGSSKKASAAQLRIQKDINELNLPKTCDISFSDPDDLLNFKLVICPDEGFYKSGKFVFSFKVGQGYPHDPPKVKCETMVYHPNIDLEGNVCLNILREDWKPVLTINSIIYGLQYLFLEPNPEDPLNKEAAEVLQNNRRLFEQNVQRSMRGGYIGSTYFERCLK
Experiment: co-immunoprecipitation with anti-Myc from lysate of HEK293 cells transfected with Myc-NEDD8, blot anti-Ubc12; from a lysate, so the contact may be indirect or through conjugation

Myc-NEDD8 expressed in HEK293 cells (from UniProt Q15843 1-76)
binding: binds
